# Assay results published in patent US20130142802A1.
# Sequences of proteins named here, by UniProt entry; tags and fusion partners are left off. A change or cut given only in a name is not applied to a line headed by its entry. Residues count along the entry.
# UniProt P21802: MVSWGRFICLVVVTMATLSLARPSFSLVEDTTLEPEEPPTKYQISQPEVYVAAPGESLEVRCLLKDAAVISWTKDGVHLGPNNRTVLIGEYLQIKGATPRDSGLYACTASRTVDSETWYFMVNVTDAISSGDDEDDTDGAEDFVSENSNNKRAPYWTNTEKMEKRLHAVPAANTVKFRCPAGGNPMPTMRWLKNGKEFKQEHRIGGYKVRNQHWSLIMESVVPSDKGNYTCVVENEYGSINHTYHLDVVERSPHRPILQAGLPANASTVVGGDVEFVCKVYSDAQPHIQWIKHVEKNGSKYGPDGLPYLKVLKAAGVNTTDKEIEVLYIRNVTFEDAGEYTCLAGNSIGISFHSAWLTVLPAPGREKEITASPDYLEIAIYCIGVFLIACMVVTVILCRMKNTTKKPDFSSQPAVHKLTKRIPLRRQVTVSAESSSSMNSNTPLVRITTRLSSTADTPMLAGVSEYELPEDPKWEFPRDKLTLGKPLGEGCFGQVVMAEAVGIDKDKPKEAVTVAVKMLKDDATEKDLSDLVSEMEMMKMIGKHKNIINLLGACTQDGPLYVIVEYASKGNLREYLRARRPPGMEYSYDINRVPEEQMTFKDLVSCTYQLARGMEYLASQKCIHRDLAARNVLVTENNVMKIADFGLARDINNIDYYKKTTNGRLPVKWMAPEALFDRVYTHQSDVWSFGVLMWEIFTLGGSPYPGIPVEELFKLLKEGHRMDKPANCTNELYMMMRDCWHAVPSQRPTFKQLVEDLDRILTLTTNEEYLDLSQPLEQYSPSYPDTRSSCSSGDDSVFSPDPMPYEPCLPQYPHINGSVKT
# Flag-FGFR2-IIIc expressed on CHO cells: residues 22-821 of P21802
# FGFR2IIIc-Fc' (R&D Systems): residues 152-377 of P21802
# These are yes or no findings as the source states them, for the method shown. Some entries that bind do so weakly or less than the wild type.
# B1: Atto-MuMab-02 (antibody, V domains shown)
# VH: EVQLQQSGAELARPGASVKLSCKTSGYTFTSYWMQWLKQRPGQGLEWIGAIHPGDGDTRYTQKFKGKATLTADKSSSTAYMQLSSLASEDSAVYYCARSDTGRYYGLDYWGQGTSVTVS
# VL: DIQMNQSPATLSVTPGETVSLSCRASQSIYKNLHWYQQKSHRSPRLLIKSTSDSISGIPSRFTGSGSGTDYTLSINSVKPEDEGIYYCLQGYSTPYTFGGGTKLEIKR
# B2: human scFv clone 6, phage-displayed (scFv)
# scFv: QSVLTQPPSVSAAPGQKVTISCSGSSSNIGNNYVSWYQQLPGTAPKLLIYDNNKRPSGIPDRFSDSKSGTSATLGITGLQTGDEADYYCGTWDSSLSAVVFGGGTKLTVLGSGGSTITSYNVYYTKLSSSGTEVQLVQSGAEVKKPGSSVKVSCKASGGTFSSYAISWVRQAPGQGLEWMGRIIPILGIANYAQKFQGRVTITADKSTSTAYMELSSLRSEDTAVYYCARDPLLWSYFDYWGQGTLVTVSS
# B3: human scFv clone 6, soluble (scFv)
# scFv: B2 scFv
# Columns and labels:
# [1] = target: FGFR2IIIc-Fc' (R&D Systems) (UniProt P21802); test: ELISA, coated Fc-fusion, hybridoma-conditioned medium
# [2] = target: FGFR2 IIIb-Fc (human); test: phage ELISA, plate coated with FGFR2 IIIb Fc fusion (whole extracellular domain)
# [3] = target: Flag-FGFR2-IIIc expressed on CHO cells (human) (UniProt P21802); test: immunocytochemical staining of CHO cells transiently expressing FGFR2IIIc
Binder,binding [1],binding [2],binding [3]
B1,binds,–,–
B2,–,no binding,binds
B3,–,–,binds
